Results are given in words; binding and its absence hold for the method and conditions named. In cells and extracts the contact can be indirect. Binding calls can cover weak binding; strength is not graded here.
What was measured:
[1] = molecular target: Ndfip1 cytosolic domain GST fusion protein (UniProt Q8R0W6); assay: pull-down; 10 ug recombinant GST-Ndfip1 or GST-Ndfip2 cytoplasmic domain incubated with lysate (1% NP40, 150 mM NaCl, 50 mM TrisHCl, precleared with GST) of WT or Ndfip1/Ndfip2 DKO CD4+ T cells restimulated 4 h with PMA/ionomycin; collected on glutathione sepharose beads; immunoblot for Itch and Nedd4-2; only the target purified
[2] = molecular target: Ndfip2 cytosolic domain GST fusion protein (UniProt Q91ZP6); assay: as above

Amino acid sequences for entries named in this document (tags omitted). A change or cut given only in a name is not applied to a line headed by its entry.
UniProt Q8R0W6: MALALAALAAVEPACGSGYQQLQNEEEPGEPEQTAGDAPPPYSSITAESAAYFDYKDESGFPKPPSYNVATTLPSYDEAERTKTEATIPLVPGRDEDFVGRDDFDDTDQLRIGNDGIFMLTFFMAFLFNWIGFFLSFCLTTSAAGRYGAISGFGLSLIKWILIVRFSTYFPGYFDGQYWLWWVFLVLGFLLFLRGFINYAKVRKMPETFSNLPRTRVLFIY
UniProt Q91ZP6: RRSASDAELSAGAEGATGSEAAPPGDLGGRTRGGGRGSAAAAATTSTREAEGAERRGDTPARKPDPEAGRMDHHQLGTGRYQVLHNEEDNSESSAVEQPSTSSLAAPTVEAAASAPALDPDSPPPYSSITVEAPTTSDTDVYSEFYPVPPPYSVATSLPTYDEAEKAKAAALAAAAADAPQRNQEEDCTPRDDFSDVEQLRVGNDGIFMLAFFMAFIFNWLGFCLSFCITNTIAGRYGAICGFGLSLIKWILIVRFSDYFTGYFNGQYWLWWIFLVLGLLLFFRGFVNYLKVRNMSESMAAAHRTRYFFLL
UniProt Q8C863: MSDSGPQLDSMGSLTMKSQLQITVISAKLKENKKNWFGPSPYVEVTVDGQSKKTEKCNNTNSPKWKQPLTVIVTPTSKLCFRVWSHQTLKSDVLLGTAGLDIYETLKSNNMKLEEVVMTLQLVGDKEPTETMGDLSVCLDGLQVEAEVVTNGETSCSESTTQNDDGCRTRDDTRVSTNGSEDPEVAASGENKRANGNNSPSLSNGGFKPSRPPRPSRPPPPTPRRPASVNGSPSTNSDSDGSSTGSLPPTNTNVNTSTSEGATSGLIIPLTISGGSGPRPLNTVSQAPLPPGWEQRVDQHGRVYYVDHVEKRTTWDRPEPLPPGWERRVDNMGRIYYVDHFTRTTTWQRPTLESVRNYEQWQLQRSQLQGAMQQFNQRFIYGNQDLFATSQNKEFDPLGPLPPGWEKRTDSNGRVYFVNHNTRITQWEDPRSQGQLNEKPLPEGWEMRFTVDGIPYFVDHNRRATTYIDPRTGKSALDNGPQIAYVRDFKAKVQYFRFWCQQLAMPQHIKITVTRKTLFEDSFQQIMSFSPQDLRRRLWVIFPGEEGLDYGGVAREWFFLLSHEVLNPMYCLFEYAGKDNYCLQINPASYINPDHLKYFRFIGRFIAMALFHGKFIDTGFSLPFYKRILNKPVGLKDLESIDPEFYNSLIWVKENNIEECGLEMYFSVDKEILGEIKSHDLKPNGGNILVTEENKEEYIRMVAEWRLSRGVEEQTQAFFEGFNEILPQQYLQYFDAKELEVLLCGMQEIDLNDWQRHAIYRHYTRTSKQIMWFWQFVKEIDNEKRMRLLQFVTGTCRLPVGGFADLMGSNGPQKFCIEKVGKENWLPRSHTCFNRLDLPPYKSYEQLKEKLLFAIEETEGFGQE
UniProt Q8CFI0: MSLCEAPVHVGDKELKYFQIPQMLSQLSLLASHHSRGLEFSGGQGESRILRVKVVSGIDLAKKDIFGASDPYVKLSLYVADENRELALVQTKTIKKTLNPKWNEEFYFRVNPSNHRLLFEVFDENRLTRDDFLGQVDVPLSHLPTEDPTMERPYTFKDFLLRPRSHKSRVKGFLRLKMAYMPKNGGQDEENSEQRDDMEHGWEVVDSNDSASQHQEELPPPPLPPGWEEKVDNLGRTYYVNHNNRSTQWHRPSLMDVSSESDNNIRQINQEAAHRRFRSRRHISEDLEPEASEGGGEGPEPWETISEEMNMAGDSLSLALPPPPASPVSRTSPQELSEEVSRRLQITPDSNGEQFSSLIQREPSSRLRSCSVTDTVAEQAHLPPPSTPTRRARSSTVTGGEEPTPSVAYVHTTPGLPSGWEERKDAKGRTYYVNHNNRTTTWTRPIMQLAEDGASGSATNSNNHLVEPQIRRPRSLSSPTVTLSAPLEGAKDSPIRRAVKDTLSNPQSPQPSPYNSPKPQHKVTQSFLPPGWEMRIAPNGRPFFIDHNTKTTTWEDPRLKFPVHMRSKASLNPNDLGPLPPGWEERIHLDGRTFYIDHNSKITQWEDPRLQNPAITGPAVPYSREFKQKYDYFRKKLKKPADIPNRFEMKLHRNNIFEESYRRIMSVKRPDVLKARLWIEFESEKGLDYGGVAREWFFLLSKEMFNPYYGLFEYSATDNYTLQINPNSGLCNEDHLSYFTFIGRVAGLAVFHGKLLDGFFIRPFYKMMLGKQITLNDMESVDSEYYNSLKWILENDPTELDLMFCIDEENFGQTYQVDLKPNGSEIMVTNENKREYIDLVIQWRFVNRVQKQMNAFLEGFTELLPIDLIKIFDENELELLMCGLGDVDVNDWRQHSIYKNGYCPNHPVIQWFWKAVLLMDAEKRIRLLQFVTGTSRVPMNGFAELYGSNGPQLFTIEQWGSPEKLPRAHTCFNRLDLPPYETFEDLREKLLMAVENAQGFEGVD

Substance	binding [1]	binding [2]
Itch (from UniProt Q8C863 1-864) (enzyme)	binds	binds
Nedd4-2 (from UniProt Q8CFI0 1-1004) (enzyme)	binds	binds

Reference: PMC4837450
